These are yes or no findings as the source states them, for the method shown. In cells and extracts the contact can be indirect. Some results given as binding are weak or reduced against the parent protein; the word gives no strength. For part of these data: Sequences can lack the tags named with a protein. Each block holds one molecule with its values, some of them ahead of it.
How the values were obtained:
[1] = biological target: T1, HA-PAH (HA-tagged phenylalanine hydroxylase) (UniProt P00439); test: co-IP; HA-PAH and Flag-Cdh1 co-transfected in HEK293 cells; 48 h after transfection lysed in 50 mM Tris-HCl pH 7.6, 150 mM NaCl, 1 mM EDTA, 1% Triton X-100; about 3 mg lysate with HA or Flag antibody at 4 °C overnight, protein agarose beads; Western blot with the reciprocal antibody
T1 sequence: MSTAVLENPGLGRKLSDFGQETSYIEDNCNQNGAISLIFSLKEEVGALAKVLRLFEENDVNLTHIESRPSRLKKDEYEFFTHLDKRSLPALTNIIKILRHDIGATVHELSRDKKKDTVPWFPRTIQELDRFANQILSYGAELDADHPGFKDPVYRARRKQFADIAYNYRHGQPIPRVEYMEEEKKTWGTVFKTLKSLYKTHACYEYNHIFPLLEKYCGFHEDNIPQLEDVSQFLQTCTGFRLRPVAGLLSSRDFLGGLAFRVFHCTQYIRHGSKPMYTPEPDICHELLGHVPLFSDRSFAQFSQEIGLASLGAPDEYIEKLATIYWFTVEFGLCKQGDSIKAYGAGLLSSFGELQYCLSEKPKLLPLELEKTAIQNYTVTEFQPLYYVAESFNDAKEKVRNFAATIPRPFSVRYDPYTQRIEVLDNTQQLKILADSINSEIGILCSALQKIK

By UniProt entry, the sequences of proteins in these tests, tags left out.
UniProt Q9UM11: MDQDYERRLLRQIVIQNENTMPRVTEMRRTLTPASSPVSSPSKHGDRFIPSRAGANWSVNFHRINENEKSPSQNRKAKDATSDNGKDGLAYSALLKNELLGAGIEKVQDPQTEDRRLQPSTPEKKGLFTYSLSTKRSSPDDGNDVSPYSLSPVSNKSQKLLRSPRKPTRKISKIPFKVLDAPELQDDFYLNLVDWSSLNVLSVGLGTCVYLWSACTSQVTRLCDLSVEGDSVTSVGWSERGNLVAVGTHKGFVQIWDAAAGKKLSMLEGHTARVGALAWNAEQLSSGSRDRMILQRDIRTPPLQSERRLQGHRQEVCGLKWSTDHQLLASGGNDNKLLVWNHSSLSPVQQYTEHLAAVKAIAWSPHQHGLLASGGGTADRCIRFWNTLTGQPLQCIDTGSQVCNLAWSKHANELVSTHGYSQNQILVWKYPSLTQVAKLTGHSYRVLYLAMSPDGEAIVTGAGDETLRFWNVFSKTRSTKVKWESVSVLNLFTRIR

[2] = biological target: Flag-Cdh1 (Flag-tagged Cdh1, coactivator of APC/C) (UniProt Q9UM11); test: as above
[3] = biological target: Cdh1 (FZR1), endogenous (human (endogenous in HHSteCs)) (UniProt Q9UM11); test: co-IP; endogenous proteins in HHSteCs, cells treated with 20 µM MG132 for 8 h; about 6 mg lysate immunoprecipitated with anti-Cdh1 antibody, immunoblotted with PAH antibody

binding [1]: binds
Molecule: Flag-Cdh1 (Flag-tagged Cdh1, coactivator of APC/C) (from UniProt Q9UM11 1-496)

binding [2]: binds
B1: HA-PAH (HA-tagged phenylalanine hydroxylase) (enzyme, UniProt P00439 1-452)
chain: MSTAVLENPGLGRKLSDFGQETSYIEDNCNQNGAISLIFSLKEEVGALAKVLRLFEENDVNLTHIESRPSRLKKDEYEFFTHLDKRSLPALTNIIKILRHDIGATVHELSRDKKKDTVPWFPRTIQELDRFANQILSYGAELDADHPGFKDPVYRARRKQFADIAYNYRHGQPIPRVEYMEEEKKTWGTVFKTLKSLYKTHACYEYNHIFPLLEKYCGFHEDNIPQLEDVSQFLQTCTGFRLRPVAGLLSSRDFLGGLAFRVFHCTQYIRHGSKPMYTPEPDICHELLGHVPLFSDRSFAQFSQEIGLASLGAPDEYIEKLATIYWFTVEFGLCKQGDSIKAYGAGLLSSFGELQYCLSEKPKLLPLELEKTAIQNYTVTEFQPLYYVAESFNDAKEKVRNFAATIPRPFSVRYDPYTQRIEVLDNTQQLKILADSINSEIGILCSALQKIK

binding [3]: binds
B2: Phenylalanine hydroxylase (PAH), endogenous (enzyme, UniProt P00439 1-452)
chain: MSTAVLENPGLGRKLSDFGQETSYIEDNCNQNGAISLIFSLKEEVGALAKVLRLFEENDVNLTHIESRPSRLKKDEYEFFTHLDKRSLPALTNIIKILRHDIGATVHELSRDKKKDTVPWFPRTIQELDRFANQILSYGAELDADHPGFKDPVYRARRKQFADIAYNYRHGQPIPRVEYMEEEKKTWGTVFKTLKSLYKTHACYEYNHIFPLLEKYCGFHEDNIPQLEDVSQFLQTCTGFRLRPVAGLLSSRDFLGGLAFRVFHCTQYIRHGSKPMYTPEPDICHELLGHVPLFSDRSFAQFSQEIGLASLGAPDEYIEKLATIYWFTVEFGLCKQGDSIKAYGAGLLSSFGELQYCLSEKPKLLPLELEKTAIQNYTVTEFQPLYYVAESFNDAKEKVRNFAATIPRPFSVRYDPYTQRIEVLDNTQQLKILADSINSEIGILCSALQKIK

Reference: article PMC7729981
